No constants are given. Whether binding was seen depends on the method and setting. In cells and extracts the contact can be indirect. Some entries that bind do so weakly or less than the wild type.
Legend:
[1] = target: p53-binding protein 1 (53BP1), endogenous (human (endogenous in HEK293T)) (UniProt Q12888); assay: co-IP; FLAG-tagged WT-KAP1 or 4KR in KAP1 depleted HEK293T cells, harvested 1 hour following 10Gy-IR (with or without IR), anti-53BP1 immunoprecipitation, immunoblotting
[2] = target: FLAG-tagged full-length (FL) SIRT1 (UniProt Q96EB6); assay: co-IP; HEK293T cells transfected with FLAG-tagged bait (KAP1, SIRT1 or SIRT1 deletion mutants; GAL4-tagged KAP1 co-transfected where named), lysed, immunoprecipitated with anti-FLAG antibody, western blot
[3] = target: FLAG-tagged SIRT1 deletion mutant Δ3 (deletion in 143-213 a.a) (UniProt Q96EB6); assay: as above
[4] = target: FLAG-tagged SIRT1 deletion mutant Δ6 (deletion in 378-458 a.a) (UniProt Q96EB6); assay: as above

The chains behind the UniProt entries cited, without tags or fusion partners. Where a name states a change or a piece, a line headed by the entry shows the natural chain unless it says otherwise. A line that says so, or that is headed by a name, gives the form on record, which may keep a tag or linker.
UniProt Q12888: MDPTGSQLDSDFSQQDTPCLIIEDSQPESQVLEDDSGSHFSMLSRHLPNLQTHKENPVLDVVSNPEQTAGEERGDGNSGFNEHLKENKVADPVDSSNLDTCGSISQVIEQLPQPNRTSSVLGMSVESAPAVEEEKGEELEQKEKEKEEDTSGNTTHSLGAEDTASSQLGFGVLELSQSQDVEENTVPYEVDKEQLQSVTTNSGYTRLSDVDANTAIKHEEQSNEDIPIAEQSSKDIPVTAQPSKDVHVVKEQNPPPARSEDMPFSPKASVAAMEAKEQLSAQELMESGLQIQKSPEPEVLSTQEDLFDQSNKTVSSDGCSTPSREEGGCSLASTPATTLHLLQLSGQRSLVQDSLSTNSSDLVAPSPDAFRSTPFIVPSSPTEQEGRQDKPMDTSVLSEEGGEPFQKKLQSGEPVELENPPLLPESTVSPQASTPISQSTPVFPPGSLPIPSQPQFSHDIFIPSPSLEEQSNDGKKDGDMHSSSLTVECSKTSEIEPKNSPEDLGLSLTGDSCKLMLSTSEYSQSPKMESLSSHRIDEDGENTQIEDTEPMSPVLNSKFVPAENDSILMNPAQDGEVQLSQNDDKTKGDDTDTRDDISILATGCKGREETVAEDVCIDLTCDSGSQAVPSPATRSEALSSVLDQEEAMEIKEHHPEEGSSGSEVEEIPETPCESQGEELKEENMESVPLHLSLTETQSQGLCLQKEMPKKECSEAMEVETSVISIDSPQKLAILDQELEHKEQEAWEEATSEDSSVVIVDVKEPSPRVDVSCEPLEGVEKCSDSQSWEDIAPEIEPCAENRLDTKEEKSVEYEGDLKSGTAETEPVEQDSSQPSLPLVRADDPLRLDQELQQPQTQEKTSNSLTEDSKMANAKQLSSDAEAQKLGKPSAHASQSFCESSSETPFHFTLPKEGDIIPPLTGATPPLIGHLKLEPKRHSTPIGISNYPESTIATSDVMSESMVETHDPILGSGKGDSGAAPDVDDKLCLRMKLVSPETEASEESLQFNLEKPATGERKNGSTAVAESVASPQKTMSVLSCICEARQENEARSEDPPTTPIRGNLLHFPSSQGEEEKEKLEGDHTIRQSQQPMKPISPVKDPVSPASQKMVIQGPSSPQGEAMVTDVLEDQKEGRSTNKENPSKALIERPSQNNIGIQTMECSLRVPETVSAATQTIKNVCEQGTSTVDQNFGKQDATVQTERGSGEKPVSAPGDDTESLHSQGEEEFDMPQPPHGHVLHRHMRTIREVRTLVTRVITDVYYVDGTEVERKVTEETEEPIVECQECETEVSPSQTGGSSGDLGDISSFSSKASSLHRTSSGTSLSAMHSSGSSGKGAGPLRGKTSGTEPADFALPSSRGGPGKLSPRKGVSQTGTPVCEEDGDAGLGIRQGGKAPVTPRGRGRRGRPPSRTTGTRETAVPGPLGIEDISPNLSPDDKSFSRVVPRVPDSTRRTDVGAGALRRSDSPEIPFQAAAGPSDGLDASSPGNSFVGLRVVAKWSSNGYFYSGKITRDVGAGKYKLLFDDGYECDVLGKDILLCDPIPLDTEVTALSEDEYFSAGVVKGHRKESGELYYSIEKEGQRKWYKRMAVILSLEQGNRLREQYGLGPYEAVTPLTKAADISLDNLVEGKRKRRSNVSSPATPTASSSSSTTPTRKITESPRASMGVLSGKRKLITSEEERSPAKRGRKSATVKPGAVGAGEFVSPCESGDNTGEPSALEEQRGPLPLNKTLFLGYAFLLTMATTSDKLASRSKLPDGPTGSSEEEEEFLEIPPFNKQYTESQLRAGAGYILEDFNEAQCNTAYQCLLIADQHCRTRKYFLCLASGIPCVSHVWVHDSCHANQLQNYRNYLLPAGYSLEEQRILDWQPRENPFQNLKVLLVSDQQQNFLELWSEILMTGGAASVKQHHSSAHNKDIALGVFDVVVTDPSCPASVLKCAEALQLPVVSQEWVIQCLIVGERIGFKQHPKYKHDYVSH
UniProt Q96EB6: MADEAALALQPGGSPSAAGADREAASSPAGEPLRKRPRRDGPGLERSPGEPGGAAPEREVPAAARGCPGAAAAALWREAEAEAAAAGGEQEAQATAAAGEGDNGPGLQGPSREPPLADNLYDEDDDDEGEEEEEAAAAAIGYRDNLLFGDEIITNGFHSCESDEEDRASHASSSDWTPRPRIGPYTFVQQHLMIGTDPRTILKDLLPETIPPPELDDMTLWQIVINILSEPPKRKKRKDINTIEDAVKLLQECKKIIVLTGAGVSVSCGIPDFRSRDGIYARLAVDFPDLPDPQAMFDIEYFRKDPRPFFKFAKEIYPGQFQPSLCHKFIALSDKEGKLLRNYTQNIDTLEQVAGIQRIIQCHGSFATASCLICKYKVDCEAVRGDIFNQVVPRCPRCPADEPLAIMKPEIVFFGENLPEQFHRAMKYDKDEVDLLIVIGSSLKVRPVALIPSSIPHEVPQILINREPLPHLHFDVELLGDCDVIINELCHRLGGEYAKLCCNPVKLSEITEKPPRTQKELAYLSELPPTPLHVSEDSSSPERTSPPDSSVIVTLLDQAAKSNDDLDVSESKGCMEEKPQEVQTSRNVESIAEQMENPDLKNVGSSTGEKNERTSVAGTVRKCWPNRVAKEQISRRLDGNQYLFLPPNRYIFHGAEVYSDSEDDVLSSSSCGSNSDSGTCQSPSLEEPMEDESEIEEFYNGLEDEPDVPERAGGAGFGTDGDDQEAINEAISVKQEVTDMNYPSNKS
FLAG-tagged SIRT1 deletion mutant Δ3 (deletion in 143-213 a.a) (Q96EB6, form named): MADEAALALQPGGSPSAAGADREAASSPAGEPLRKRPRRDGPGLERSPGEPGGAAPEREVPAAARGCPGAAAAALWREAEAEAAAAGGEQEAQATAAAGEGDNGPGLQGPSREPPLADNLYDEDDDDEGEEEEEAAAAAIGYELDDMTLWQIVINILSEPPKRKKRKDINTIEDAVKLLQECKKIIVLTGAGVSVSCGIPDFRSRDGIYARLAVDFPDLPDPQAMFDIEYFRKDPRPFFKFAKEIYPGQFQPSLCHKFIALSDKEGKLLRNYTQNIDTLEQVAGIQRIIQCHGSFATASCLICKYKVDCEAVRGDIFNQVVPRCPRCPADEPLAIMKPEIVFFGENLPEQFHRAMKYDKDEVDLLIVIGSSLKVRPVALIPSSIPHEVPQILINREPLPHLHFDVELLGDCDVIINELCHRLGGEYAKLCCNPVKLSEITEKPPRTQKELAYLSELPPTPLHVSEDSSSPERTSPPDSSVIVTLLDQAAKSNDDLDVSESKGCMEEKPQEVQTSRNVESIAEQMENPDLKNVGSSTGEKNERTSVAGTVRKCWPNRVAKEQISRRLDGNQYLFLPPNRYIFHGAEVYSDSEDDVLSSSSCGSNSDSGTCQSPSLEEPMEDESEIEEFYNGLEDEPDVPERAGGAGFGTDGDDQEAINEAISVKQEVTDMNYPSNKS
FLAG-tagged SIRT1 deletion mutant Δ6 (deletion in 378-458 a.a) (Q96EB6, form named): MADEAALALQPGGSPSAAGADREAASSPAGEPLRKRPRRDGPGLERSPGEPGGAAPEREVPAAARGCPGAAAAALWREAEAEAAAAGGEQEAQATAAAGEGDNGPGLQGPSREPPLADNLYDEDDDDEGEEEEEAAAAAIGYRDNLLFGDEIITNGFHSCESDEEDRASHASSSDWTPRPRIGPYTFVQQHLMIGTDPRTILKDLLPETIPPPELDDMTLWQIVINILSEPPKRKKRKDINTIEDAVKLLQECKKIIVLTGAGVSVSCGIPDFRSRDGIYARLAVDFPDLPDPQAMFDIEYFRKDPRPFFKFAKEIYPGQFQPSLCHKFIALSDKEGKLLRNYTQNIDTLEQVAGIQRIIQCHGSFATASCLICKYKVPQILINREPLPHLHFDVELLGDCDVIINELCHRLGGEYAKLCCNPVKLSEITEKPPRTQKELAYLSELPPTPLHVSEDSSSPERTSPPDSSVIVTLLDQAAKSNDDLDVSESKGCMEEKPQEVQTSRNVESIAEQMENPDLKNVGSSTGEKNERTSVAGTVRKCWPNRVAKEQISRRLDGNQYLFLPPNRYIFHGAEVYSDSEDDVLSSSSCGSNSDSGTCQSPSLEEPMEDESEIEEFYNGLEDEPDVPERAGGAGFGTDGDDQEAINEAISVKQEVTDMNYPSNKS
UniProt Q13263: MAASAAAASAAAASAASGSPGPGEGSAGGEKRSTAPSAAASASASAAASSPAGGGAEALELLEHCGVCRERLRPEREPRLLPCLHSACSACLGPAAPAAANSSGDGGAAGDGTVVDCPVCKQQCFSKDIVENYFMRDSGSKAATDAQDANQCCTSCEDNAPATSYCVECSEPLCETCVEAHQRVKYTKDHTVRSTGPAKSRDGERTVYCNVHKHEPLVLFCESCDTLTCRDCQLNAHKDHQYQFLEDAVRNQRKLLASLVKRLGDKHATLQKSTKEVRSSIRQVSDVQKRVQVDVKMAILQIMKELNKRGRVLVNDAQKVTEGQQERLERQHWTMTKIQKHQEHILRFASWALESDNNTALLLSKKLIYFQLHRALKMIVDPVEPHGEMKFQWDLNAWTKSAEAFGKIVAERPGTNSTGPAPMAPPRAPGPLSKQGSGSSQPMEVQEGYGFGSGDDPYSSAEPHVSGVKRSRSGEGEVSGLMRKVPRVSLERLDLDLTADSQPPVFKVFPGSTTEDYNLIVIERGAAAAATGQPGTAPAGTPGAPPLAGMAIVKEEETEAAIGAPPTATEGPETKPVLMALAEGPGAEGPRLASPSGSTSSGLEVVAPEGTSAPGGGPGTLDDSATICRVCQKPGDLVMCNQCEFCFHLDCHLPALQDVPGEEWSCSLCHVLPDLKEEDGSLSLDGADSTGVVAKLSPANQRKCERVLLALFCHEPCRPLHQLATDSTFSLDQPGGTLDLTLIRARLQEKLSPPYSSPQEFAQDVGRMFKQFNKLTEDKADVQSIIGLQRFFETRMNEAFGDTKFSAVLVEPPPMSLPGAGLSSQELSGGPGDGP

binding [1] | binding [2] | binding [3] | binding [4] | Substance
binds | – | – | – | FLAG-tagged KAP1 (from UniProt Q13263 1-835)
– | binds | – | – | GAL4-tagged full-length (FL) KAP1 (from UniProt Q13263 1-835)
– | binds | no binding | no binding | Krüppel associated box (KRAB)-associated protein 1 (KAP1), endogenous (from UniProt Q13263 1-835)
